Measured values: the supplement of paper PMC8960247

Tests used:
621-102 (TSC2-deficient) = assay: relative viability vs DMSO; higher = less cytotoxic; settings: serum: 10% FBS, 72 h
621-103 (TSC2-rescued) = assay: as above; settings: serum: 10% FBS, 72 h
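Further: immortalized renal angiomyolipoma cells stably carrying empty vector or TSC2, dosed in 384-well plates in DMEM, viability normalized to vehicle-treated wells within each plate.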

Cc1ccccc1-n1c(Cn2nc(-c3cccc(O)c3)c3c(N)ncnc32)nc2cccc(C)c2c1=O [PIK-294]
relative viability [%]
Settings	0.0001 µM	0.001 µM	0.01 µM	0.1 µM	1 µM	10 µM
621-102 (TSC2-deficient)	98.747	116	112.66	109.8	108	89.8
621-103 (TSC2-rescued)	116	101	110.2	111	111.5	93.7
